The assay has as its target Fatty acid synthase (FASN), endogenous in osteosarcoma cells (human (endogenous in 143B and U2OS)) (UniProt P49327). As to the kind of experiment: affinity purification with mass spectrometry; co-immunoprecipitation of FASN from OS cells, silver staining and mass spectrometry; 127 proteins identified.

Amino acid sequences for entries named in this document (tags omitted).
UniProt P49327: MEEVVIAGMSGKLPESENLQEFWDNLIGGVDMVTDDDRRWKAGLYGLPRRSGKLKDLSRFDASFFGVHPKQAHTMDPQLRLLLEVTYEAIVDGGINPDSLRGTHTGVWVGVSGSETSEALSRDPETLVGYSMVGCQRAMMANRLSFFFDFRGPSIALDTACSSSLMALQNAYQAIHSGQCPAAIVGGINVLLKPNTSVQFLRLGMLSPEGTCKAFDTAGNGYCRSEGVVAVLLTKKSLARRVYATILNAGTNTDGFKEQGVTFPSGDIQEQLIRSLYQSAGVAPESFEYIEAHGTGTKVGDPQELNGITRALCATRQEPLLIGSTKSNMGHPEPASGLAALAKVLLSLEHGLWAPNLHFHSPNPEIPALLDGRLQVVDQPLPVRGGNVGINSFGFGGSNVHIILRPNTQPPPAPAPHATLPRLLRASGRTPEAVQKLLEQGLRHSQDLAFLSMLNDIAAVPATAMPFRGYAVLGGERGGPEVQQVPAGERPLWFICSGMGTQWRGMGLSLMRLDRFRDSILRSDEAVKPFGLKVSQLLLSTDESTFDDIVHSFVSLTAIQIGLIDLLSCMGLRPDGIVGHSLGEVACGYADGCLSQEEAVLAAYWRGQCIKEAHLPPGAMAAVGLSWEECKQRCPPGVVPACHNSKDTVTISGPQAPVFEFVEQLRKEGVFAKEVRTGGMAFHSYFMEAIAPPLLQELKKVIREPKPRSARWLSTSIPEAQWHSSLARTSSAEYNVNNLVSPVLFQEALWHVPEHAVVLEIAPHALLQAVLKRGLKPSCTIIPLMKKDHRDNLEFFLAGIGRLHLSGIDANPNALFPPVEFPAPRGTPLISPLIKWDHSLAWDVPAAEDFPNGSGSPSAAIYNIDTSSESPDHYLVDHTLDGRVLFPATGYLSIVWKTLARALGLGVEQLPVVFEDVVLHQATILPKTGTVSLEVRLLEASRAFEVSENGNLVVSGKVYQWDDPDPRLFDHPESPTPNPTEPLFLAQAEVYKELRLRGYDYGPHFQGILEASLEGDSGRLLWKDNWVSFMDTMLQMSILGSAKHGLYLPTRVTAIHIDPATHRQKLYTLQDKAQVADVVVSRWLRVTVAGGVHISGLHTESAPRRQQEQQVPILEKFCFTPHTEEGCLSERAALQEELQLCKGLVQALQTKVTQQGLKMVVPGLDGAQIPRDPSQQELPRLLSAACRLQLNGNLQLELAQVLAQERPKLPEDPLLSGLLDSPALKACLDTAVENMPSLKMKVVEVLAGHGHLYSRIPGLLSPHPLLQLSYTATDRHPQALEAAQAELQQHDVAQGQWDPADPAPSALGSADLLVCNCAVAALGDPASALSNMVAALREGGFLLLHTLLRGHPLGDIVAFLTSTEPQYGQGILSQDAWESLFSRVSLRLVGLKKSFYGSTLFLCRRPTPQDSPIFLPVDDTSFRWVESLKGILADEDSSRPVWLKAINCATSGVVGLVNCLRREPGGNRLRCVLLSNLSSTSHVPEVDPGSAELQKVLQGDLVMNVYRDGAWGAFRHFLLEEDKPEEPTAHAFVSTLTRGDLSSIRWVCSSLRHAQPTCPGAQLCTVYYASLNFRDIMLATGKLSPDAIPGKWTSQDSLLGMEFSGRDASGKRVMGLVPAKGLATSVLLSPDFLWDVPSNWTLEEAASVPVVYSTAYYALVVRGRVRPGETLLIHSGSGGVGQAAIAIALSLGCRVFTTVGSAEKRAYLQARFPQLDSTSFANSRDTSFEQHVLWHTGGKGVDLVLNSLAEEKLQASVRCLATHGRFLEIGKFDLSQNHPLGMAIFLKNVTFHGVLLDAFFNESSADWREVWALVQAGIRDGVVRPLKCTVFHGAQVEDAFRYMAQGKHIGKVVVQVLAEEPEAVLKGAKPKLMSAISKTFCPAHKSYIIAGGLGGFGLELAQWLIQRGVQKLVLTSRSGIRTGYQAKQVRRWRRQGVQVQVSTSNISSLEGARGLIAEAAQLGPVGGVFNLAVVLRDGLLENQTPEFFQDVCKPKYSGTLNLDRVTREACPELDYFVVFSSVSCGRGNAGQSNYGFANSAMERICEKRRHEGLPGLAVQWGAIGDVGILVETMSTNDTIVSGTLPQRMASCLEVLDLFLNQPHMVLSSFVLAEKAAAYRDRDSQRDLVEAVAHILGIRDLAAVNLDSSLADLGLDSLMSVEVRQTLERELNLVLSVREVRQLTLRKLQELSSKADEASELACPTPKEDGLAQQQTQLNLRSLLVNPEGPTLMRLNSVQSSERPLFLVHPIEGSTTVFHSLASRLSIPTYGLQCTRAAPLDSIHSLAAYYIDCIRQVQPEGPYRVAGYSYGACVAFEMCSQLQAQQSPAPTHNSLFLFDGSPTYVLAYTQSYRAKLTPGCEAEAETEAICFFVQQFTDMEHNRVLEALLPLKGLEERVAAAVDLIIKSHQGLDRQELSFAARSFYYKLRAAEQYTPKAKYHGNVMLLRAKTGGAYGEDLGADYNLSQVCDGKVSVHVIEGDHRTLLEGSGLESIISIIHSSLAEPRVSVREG

From publication PMC11532476 come the findings set out here.

These are yes or no findings as the source states them, for the method shown. Binding seen in cells or lysates may run through a third protein. These calls come from enrichment with a bait or labelling near it, and not all partners need be listed.

As for “Valosin-containing protein (VCP), endogenous in osteosarcoma cells (from UniProt P55072 1-806)”, the binding entry is “binds”.
